Experimental data as given in patent US20080292632A1 (US Dept. of Health and Human Services, published 2008).
Results are given in words; binding and its absence hold for the method and conditions named. Some binding calls cover weakened binding; strength is not graded here. For some of these results: Tags and fused reporters may be left off the sequences shown.

Experiments:
Assay in all cases: IRTA2 domain Fc-fusion
[1] = target: T1, IRTA2 1-8-RFc (human) (UniProt Q96RD9)
T1 sequence (looked up): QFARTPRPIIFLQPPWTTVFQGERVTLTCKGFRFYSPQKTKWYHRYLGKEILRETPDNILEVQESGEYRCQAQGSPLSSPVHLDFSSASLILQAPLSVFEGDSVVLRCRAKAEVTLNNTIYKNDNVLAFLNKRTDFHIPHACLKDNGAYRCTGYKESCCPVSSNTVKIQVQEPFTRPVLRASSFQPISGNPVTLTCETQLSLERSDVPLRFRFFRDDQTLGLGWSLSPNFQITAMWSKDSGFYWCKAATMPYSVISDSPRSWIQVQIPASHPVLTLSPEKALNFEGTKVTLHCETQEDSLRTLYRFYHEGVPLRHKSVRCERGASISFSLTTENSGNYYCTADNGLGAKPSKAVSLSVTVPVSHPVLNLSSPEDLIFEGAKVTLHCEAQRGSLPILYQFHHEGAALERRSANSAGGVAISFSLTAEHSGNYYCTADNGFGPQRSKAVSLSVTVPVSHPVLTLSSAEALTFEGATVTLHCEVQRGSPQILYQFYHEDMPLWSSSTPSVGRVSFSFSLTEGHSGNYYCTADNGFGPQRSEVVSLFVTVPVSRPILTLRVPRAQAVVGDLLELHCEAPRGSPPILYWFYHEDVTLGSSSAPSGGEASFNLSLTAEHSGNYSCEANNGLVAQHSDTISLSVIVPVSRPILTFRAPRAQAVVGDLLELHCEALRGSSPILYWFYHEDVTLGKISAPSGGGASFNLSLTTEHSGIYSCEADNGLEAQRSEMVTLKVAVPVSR

[2] = target: T2, IRTA2 ED1 Fc-fusion (human) (UniProt Q96RD9)
T2 sequence (looked up): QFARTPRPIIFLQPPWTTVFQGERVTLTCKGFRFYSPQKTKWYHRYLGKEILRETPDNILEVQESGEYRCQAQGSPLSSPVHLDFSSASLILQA

[3] = target: T3, IRTA2 ED1-2 Fc-fusion (human) (UniProt Q96RD9)
T3 sequence (looked up): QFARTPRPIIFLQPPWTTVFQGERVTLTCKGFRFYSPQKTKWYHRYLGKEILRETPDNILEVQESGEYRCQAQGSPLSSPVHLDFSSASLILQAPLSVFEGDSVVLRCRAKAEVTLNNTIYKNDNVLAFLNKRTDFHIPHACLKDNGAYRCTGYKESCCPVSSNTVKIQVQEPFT

[4] = target: T4, IRTA2 ED1-8 Fc-fusion (human) (UniProt Q96RD9)
T4 sequence (looked up): T1 sequence (looked up)

Measured: binding

B1: F25 (antibody, IgG2a, V domains shown)
VH: EVQLQQSGPELVKPGTSVKMSCKASGYSFTGYFMNWMMQNHGKSLEWIGRINLYNGDTFYNQKFKDKATLTVDKSSNTVHMEFRSLASEDSAVYYCASSLYYFDYWGQGTTFTVSS
VL: DIVMTQSHKFMSTSVGDRVNITCKASQDVGTNVAWYQQKPGQSPKLLIYWASTRQTGVPDRFTGSGSGTDFTLTISNVQSEDLSDYFCQQYSSYPLTFGAGTKLELKR
notes: mouse hybridoma MAb, IgG2a, kappa; also called MAb F25; biotin-MAb F25
binds: all assays above
